Measurements published in US10112906B2, “1-aryl-3-alkylpyrazole insecticides” (E. I. DU PONT DE NEMOURS AND COMPANY, priority 2013, dated 2018).
At least one compound was matched to its structure with a doubt left.

What was measured:
[1] = test system: diamondback moth (Plutella xylostella (L.)); test: Test A: control of diamondback moth, foliar spray on mustard plant; assay type: in vivo; settings: neonate larvae, assessed after 6 days
Experimental: (§1) Test compounds were formulated using a solution containing 10% acetone, 90% water and 300 ppm X-77® Spreader Lo-Foam Formula non-ionic surfactant containing alkylarylpolyoxyethylene, free fatty acids, glycols and isopropanol (Loveland Industries, Inc. Greeley, Colo., USA). The formulated compounds were applied in 1 mL of liquid through a SUJ2 atomizer nozzle with ⅛ JJ custom body (Spraying Systems Co. Wheaton, Ill., USA) positioned 1.27 cm (0.5 inches) above the top of each test unit. Test compounds were sprayed at the rates indicated, and each test was replicated three times.
For evaluating control of diamondback moth (Plutella xylostella (L.)) the test unit consisted of a small open container with a 12-14-day-old mustard plant inside. This was pre-infested with ˜50 neonate larvae that were dispensed into the test unit via corn cob grits using an inoculator. The larvae moved onto the test plant after being dispensed into the test unit.
Test compounds were formulated and sprayed at 250 and/or 50 ppm. After spraying of the formulated test compound, each test unit was allowed to dry for 1 hour and then a black, screened cap was placed on top. The test units were held for 6 days in a growth chamber at 25° C. and 70% relative humidity. Plant feeding damage was then visually assessed based on foliage consumed, and larvae were assessed for mortality.

[2] = test system: fall armyworm (Spodoptera frugiperda (J. E. Smith)); test: Test B: control of fall armyworm, foliar spray on corn (maize) plant; assay type: in vivo; settings: 1-day-old larvae, assessed after 6 days
Experimental: as §1
For evaluating control of fall armyworm (Spodoptera frugiperda (J. E. Smith)) the test unit consisted of a small open container with a 4-5-day-old corn (maize) plant inside. This was pre-infested with 10-15 1-day-old larvae on a piece of insect diet.
Test compounds were formulated and sprayed at 250 and/or 50 ppm. After spraying of the formulated test compound, the test units were maintained in a growth chamber for 6 days at 25° C. and 70% relative humidity. Plant feeding damage was then visually assessed based on foliage consumed, and larvae were assessed for mortality.

## N#CC1CCN(Cc2cn(-c3ccc(Cl)cn3)nc2C2CCCC2)CC1 [Compound 66, 1-[[1-(5-chloro-2-pyridinyl)-3-cyclopentyl-1H-pyrazol-4-yl]methyl]-4-piperidinecarbonitrile]
[1]; sprayed at 50 ppm
  control efficacy (40% or less feeding damage and/or 100% mortality): very good to excellent levels of control efficacy
[1]; sprayed at 250 ppm
  control efficacy (40% or less feeding damage and/or 100% mortality): very good to excellent levels of control efficacy
[2]; sprayed at 50 ppm
  control efficacy (40% or less feeding damage and/or 100% mortality): very good to excellent levels of control efficacy
[2]; sprayed at 250 ppm
  control efficacy (40% or less feeding damage and/or 100% mortality): very good to excellent levels of control efficacy
